According to patent publication US20120058100A1, “MODULATION OF DRUG RELEASE RATE FROM ELECTROSPUN FIBERS” (priority 2006, published 2012):
For at least one compound, name, drawing or mass did not settle the structure. Some entries share one result that the patent states for a list of compounds.

Assay: Release of doxycycline and doxycycline-cyclodextrin complex from emulsion-electrospun PLA/PU fibers in PBS
Format: physicochemical
Conditions: for fraction of release occurring within 6 hours of hydration: PBS, 20° C.

C[C@H]1c2cccc(O)c2C(=O)C2=C(O)[C@]3(O)C(=O)C(C(N)=O)=C(O)[C@@H](N(C)C)[C@@H]3[C@@H](O)[C@@H]21 [doxycycline, Doxycycline Hyclate]
time up to which sustained release behavior can be quantified (PLA fibers): up to 2 days | time of release from the hydrated mesh (released rapidly) (hydrated mesh): > 6 h | period of detectable release (monitored for 10 days): ≤ 100 h | slope of linear regression fit of the linear release portion of the curve (release from PLA fibers): 0.0061 | slope of linear region of release curve relative to the complexed drug (versus cyclodextrin complex, 1:1 by mass): approximately double the slope | fraction of release occurring within 6 hours of hydration: Over 90% | fraction of release occurring within 6 hours of hydration (listed as Doxycycline): More than 90%
